Results published in PubChem BioAssay AID1347076 (National Center for Advancing Translational Sciences (NCATS), 2019).
In all, about 400,000 compounds went through this assay and about 13,000 (3.2%) were called active. Inconclusive results, whose numbers are uncertain, are shown with a selection of clear calls. The call rests on the fitted dose curve; in most records, active means well fitted cell-killing curve with a large enough effect; inconclusive means small, poorly fitted or top-dose-only effect, or effect the other way; inactive means flat fitted curve, though single readings scatter. Where the call is inconclusive, the potency comes from a doubtful curve fit.

Test: qHTS assay for MDR1-selective chemotherapeutics: Primary screen using the drug-selected MDR subline cells KB-V1; further: nearly all actives have a fitted effect of over 60% in size
Details: KB-V1 MDR cells viability, CellTiter-Glo, 72 h; series mostly up to 46.1 µM
Summary of the method: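 Luminescent ATP read-out (CellTiter-Glo, 10 min) measures survival of drug-selected KB-V1 MDR cells after 72 h, 37 degrees C compound exposure. Medium: phenol-red-free DMEM, 10% FBS. Values from fitted concentration-response curves.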
Potency means the concentration at half of the fitted maximal effect.

Compound	Potency
COc1ccccc1CN1CC(C(=O)N2CCCCCCC2)CCC1=O (centres undefined)	inconclusive: 29.1 µM [cytotoxic, single point]
CC1CCN(C(=O)c2cc(-c3cccc(Cl)c3)on2)CC1	inactive
CC(c1ccon1)N(C)Cc1cn(C)nc1-c1ccc2c(c1)OCCO2 (centres undefined)	inactive
CC(C)Oc1ccc(C(=O)CCN2CCOCC2)cc1	inconclusive: 0.291 µM [rising, full curve, poor fit]
Cc1ccc(S(=O)(=O)NC(CC(=O)NCc2ccco2)c2ccco2)cc1 (centres undefined)	inconclusive: 20.6 µM [cytotoxic, partial curve, poor fit]
O=[N+]([O-])c1ccc(O)c(C=NN2CCCCC2)c1	inconclusive: 29.1 µM [rising, partial curve, poor fit]
Cn1c(SCC(=O)N2CCCc3ccccc32)nnc1-c1ccco1	inconclusive: 23.1 µM [cytotoxic, partial curve, poor fit]
Cn1c(=O)c2cc(NC(=O)Cc3cccnc3)ccc2n1-c1ccc2ccccc2c1	inconclusive: 32.6 µM [cytotoxic, single point]
COCc1c(Br)c(C)nc(OCC(=O)N/N=C/c2ccco2)c1C#N	inactive
CCOCCCn1c(SCC(=O)Nc2cccc(OC)c2)nc2ccccc2c1=O	inconclusive: 2.31 µM [cytotoxic, partial curve, poor fit]
Cn1c(N)c(C(=O)CSc2nc3ccccc3c(=O)n2CCCN2CCOCC2)c(=O)n(C)c1=O	inconclusive: 25.9 µM [cytotoxic, single point]
Cc1cccc(NC(=O)Nc2cccc(C)n2)n1	inconclusive: 18.4 µM [cytotoxic, partial curve]
Nc1ccc(N2CCN(c3cccc(Cl)c3)CC2)cc1	active: 20.6 µM
CCN(CC)c1nc(N2CCN(C)CC2)nc2ccccc12	inconclusive: 20.6 µM [cytotoxic, single point]
COc1ccc(CCNC(=O)C(=O)NCc2ccc(C)cc2)cc1OC	active: 20.6 µM
CCC(CO)Nc1ncnc2c1cnn2-c1ccc(C)cc1 (centres undefined)	inconclusive: 6.51 µM [rising, full curve, poor fit]
O=C(Nc1cccc(S(=O)(=O)Nc2ccccc2Cl)c1)c1ccc(Cl)nc1	active: 2.59 µM
O=C(NCc1ccc2c(c1)OCO2)c1ccc2c(c1)N(Cc1ccc(F)cc1)C(=O)c1ccccc1S2=O (centres undefined)	inactive
COC(=O)Nc1ccc(S(=O)(=O)N2CCCc3ccccc32)cc1	active: 1.16 µM
COc1ccc(-n2c(SCc3nnc(-c4ccccc4)o3)nnc2-c2ccccc2)cc1	active: 2.31 µM
CCN(CC)C(=O)c1ccc(COc2ccc(Cl)c(C)c2)o1	inconclusive: 29.1 µM [cytotoxic, single point]
CCOCCc1nn2c(=O)cc(COC(=O)c3cccs3)nc2s1	inconclusive: 16.4 µM [rising, single point]

Compound	Potency
O=C(NNc1ccnc2cc(Cl)ccc12)C1CCCCC1	inconclusive: 1.03 µM [cytotoxic, full curve]
Cc1cc(C(=O)COC(=O)c2cccc(NS(C)(=O)=O)c2)c(C)n1CC1CCCO1 (centres undefined)	inconclusive: 18.4 µM [cytotoxic, single point]
COc1cccc(C2=NOC(C(=O)Nc3cccnc3)C2)c1 (centres undefined)	active: 16.4 µM
CC(=O)c1ccc(N2CCN(C(=S)Nc3ccc(Oc4ccccc4)cc3)CC2)cc1	inconclusive: 20.6 µM [cytotoxic, partial curve, poor fit]
COc1ccc(CCNC(=O)c2cc(-c3ccccc3)c(N3CCOCC3)s2)cc1OC	inconclusive: 29.1 µM [cytotoxic, single point]
CC1=C(C(=O)OC2CCCCC2)C(c2cccs2)n2c(nc3ccccc32)N1 (centres undefined)	inconclusive: 1.64 µM [cytotoxic, full curve]
CN(C)C(=O)c1cc(Cl)ccc1Sc1cc(Cl)ccc1Cl	inconclusive: 20.6 µM [cytotoxic, partial curve]
COc1ccccc1/C=C1\SC(=O)N(CC(=O)N(C)C2CCS(=O)(=O)C2)C1=O (centres undefined)	inactive
CCOc1nc(NCCc2ccc(OC)c(OC)c2)nc(N2CCN(c3ccc(OC)cc3)CC2)n1	inactive
CN(C)S(=O)(=O)c1ccc(NC(=O)CSc2ncnc3ccccc23)cc1	inconclusive: 23.1 µM [rising, partial curve, poor fit]
NS(=O)(=O)c1ccc(N2N=C(c3ccccc3)CC2c2ccc(Br)cc2)cc1 (centres undefined)	inconclusive: 29.1 µM [cytotoxic, single point]
CCCC(=O)O[C@]1(C(=O)CCl)[C@@H](C)C[C@H]2[C@@H]3CCC4=CC(=O)C=C[C@]4(C)[C@@]3(F)C(=O)C[C@@]21C	active: 13 µM
COc1ccc(CN2CCN(Cc3ccccc3)C(CCO)C2)cc1OC (centres undefined)	inactive
C=C(C)C1CC=C(C)/C(=N/NC(=O)COc2cccc(C)c2)C1 (centres undefined)	inconclusive: 14.6 µM [cytotoxic, partial curve]
COc1ccccc1N1CCN(C(=O)COc2ccc(S(=O)(=O)NC(C)C)cc2)CC1	inconclusive: 13 µM [rising, partial curve, poor fit]
Cc1ccc(C(=O)NNC(=O)c2cc(C)nc3ccccc23)cc1	inconclusive: 10.3 µM [cytotoxic, partial curve]
CCc1cccc(C)c1N=Cc1c(O)c2ccccc2oc1=O	inactive
CCc1ccc(NC(=O)C(CC)n2nnc(C(=O)OC)c2C(=O)OC)cc1 (centres undefined)	inactive
Cc1cc(O)c(C2=Nc3ccccc3SC(c3ccc(Cl)cc3)C2)c(=O)o1 (centres undefined)	inconclusive: 2.59 µM [cytotoxic, full curve, poor fit]
C[C@H](CO)N1C[C@H](C)[C@@H](CN(C)Cc2ccccc2)Oc2ccc(NC(=O)CCCCCC(=O)Nc3ccccc3N)cc2C1=O	inconclusive: 32.6 µM [rising, single point]
NC(Cc1ccc(C(F)(F)F)cc1)c1csc(NC(=O)Nc2ccccc2Cl)n1 (centres undefined)	inactive
COc1ccc(CN2CCC(C(=O)NC(c3ccc4c(c3)OCO4)c3ccccn3)CC2)cc1 (centres undefined)	inactive

Quoted from the listing:
Entry for CCOc1nc(NCCc2ccc(OC)c(OC)c2)nc(N2CCN(c3ccc(OC)cc3)CC2)n1 under Potency: inactive
Entry for CN(C)S(=O)(=O)c1ccc(NC(=O)CSc2ncnc3ccccc23)cc1 under Potency: inconclusive: 23.1 µM [rising, partial curve, poor fit]
